These are yes or no findings as the source states them, for the method shown. Binding seen in cells or lysates may run through a third protein. These calls come from enrichment with a bait or labelling near it, and not all partners need be listed. Tags and fused reporters may be left off the sequences shown.
Biological target: T1, HA-tagged cMLCK (cardiac-specific myosin light chain kinase) expressed in transgenic mouse hearts (mouse) (UniProt Q3UIZ8)
T1 sequence: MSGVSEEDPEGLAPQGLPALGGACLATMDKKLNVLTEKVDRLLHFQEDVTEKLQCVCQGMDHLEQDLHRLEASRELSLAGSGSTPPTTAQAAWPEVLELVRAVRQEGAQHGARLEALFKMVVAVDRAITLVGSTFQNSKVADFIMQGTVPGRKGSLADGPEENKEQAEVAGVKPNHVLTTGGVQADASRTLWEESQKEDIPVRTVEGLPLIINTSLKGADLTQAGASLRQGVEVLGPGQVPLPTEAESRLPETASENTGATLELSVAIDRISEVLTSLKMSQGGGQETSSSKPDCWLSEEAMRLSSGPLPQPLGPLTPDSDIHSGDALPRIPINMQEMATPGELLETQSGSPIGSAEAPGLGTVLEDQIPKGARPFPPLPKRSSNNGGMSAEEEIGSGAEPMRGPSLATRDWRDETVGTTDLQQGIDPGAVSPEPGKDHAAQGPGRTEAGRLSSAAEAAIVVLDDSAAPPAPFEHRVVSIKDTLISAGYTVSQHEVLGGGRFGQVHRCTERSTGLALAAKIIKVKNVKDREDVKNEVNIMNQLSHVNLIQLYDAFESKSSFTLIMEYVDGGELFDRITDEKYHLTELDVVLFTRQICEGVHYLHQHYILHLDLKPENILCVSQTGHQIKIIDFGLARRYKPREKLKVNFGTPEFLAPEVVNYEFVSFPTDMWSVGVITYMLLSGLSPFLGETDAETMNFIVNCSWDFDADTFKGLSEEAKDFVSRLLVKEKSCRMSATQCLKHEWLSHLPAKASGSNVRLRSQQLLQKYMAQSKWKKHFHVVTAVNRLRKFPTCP
Assay: affinity purification with mass spectrometry; hearts of HA-cMLCK transgenic mice perfused with 1% formaldehyde for 10 min at room temperature; heart lysates immunoprecipitated with HA-agarose, in-gel trypsin digest, LC-MS/MS

Protein sequences, listed by entry. Tags and fused reporters are not part of them.
UniProt Q9JI91: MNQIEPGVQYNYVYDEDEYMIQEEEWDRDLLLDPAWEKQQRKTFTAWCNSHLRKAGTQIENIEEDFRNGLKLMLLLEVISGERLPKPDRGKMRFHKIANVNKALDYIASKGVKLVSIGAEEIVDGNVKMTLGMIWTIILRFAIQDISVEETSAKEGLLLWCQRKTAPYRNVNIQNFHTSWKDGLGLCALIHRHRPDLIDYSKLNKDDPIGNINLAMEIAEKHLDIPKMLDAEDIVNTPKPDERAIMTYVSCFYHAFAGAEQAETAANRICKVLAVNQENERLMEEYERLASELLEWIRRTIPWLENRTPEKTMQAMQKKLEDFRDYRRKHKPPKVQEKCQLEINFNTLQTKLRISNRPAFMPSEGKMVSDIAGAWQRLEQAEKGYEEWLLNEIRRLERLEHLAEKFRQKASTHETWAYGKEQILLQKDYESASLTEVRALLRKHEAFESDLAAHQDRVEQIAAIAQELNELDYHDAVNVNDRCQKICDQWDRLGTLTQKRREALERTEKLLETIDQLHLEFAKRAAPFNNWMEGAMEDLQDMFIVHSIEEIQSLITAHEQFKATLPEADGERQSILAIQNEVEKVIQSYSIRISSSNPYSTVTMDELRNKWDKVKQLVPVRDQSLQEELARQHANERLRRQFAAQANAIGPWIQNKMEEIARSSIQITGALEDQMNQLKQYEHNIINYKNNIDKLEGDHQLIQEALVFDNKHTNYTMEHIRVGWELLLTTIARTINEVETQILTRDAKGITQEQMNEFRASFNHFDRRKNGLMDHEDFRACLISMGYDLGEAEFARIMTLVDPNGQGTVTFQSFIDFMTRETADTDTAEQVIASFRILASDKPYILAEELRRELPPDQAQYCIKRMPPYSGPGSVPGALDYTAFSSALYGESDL
UniProt P50462: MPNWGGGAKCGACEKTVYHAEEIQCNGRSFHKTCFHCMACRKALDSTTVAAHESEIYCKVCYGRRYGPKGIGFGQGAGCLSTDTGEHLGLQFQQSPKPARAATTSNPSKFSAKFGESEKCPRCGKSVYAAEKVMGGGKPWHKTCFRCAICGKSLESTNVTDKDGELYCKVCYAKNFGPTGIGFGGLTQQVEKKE

Row | Substance | binding
1 | α-actinin2, endogenous in mouse heart (from UniProt Q9JI91 1-894) | binds
2 | CSRP3 (cysteine and glycine rich protein 3, MLP), endogenous in mouse heart (from UniProt P50462 1-194) | binds

Reference: PMC6715661, “Cardiac MLC2 kinase is localized to the Z-disc and interacts with α-actinin2” (Scientific Reports, 2019)
